Results as given in patent US8758782B2, “Excipient preservatives and pharmaceutical compositions comprised thereof” (Galderma Research & Development, priority 2007, dated 2014).
At least one compound was matched to its structure with a doubt left.

Test system: Bacteria and fungi (Escherichia coli, Pseudomonas aeruginosa, Staphylococcus aureus, Candida albicans, Aspergillus niger)
Assay: PET, overall compliance with European and U.S. pharmacopoeia criteria
Format: cell-based
Conditions: additive in standard emulsion
Excerpt: A particular problem that must be solved by the invention is that of effectively protecting a pharmaceutical topical composition while at the same time meeting the criteria required by the European and U.S. pharmacopoeias. This is because, since the purpose of the pharmaceutical composition is to become a pharmaceutical product with a marketing authorization, it is imperative for the composition according to the invention to meet these criteria. In order to verify this point and to determine the antimicrobial action of the various mixtures of excipients according to the invention, a test protocol, known as the PET (Preservative Efficacy Test), exists. The PET comprises artificially inoculating the compositions with a known number of microorganisms, and then determining the decrease in the latter in the compositions tested, at given times. The protocol of this test is set up in order to abide by the recommendations of the European and U.S. pharmacopoeias. The test and also the recommendations of the European and U.S. pharmacopoeias are described in Example 1 to follow. The mixture of excipients as preservatives, described herein, should therefore meet the criteria of these pharmacopoeias in the PET.
This test comprises artificially contaminating aliquots of formulation by means of a calibrated inoculum of specific microorganisms and incubating the same at precise temperatures. […]

Question: For `Cc1cc(C(C)(C)C)c(O)c(C(C)(C)C)c1` [BHT, butylhydroxytoluene], which “Efficacy on the microorganisms as a whole / spectrum of efficacy” value is on record?
Answer: do not have a significant efficacy
